{
  "source": "ChEMBL document CHEMBL1148754",
  "about": "“4- and 5-aroylindoles as novel classes of potent antitubulin agents” (J Med Chem, 2007)",
  "tested_on": "KB",
  "experiment": "Growth inhibition of human KB cells after 72 hrs by methylene blue dye assay",
  "assay_type": "functional, cell-based",
  "how_it_was_run": "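Antiproliferative screen in human cancer lines: KB (oral epidermoid carcinoma), HT29 (colorectal carcinoma), H460 (non-small cell lung carcinoma), TSGH and MKN45 (stomach carcinoma), plus KB-VIN10, an MDR-positive line overexpressing P-gp 170/MDR. Potency is reported as IC50.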",
  "data": [
    {"smiles": "COc1cc2c(c(OC)c1OC)-c1ccc(OC)c(=O)cc1[C@@H](NC(C)=O)CC2", "note": "[COLCHICINE]", "values": [
      {"measurement": "IC50", "result": 12, "unit": "nM"}
    ]}
  ]
}
